Source: the supplement of paper PMC10849652
The list shows a part of the results.

Sequences of proteins named here, by UniProt entry; tags and fusion partners are left off. A change or cut given only in a name is not applied to a line headed by its entry.
UniProt Q96Q11: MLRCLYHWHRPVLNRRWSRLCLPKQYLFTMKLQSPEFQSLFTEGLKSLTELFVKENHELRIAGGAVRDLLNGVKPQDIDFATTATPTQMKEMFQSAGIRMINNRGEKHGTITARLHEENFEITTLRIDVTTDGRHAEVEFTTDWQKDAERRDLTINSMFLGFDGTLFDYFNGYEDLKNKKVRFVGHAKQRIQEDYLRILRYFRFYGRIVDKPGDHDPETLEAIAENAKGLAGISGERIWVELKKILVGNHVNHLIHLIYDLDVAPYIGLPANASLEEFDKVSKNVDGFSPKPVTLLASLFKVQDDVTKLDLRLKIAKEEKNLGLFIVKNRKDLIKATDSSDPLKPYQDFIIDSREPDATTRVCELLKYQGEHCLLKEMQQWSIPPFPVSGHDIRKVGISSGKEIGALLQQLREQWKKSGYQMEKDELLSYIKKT
UniProt Q7Z6J9: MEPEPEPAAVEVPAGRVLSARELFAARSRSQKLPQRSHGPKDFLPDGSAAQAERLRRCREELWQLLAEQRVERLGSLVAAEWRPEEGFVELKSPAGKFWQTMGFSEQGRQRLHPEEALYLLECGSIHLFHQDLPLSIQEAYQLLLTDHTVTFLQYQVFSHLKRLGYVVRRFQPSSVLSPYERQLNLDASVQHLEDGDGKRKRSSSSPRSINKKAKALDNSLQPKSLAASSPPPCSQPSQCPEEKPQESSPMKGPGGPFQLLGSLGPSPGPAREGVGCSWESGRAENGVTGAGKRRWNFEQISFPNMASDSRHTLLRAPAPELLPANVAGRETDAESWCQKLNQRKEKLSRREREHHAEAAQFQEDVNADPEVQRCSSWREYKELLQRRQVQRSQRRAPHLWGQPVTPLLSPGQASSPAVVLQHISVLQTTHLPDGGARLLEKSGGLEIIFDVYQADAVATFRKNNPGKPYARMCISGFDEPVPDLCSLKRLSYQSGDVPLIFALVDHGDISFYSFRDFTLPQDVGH
UniProt Q15714: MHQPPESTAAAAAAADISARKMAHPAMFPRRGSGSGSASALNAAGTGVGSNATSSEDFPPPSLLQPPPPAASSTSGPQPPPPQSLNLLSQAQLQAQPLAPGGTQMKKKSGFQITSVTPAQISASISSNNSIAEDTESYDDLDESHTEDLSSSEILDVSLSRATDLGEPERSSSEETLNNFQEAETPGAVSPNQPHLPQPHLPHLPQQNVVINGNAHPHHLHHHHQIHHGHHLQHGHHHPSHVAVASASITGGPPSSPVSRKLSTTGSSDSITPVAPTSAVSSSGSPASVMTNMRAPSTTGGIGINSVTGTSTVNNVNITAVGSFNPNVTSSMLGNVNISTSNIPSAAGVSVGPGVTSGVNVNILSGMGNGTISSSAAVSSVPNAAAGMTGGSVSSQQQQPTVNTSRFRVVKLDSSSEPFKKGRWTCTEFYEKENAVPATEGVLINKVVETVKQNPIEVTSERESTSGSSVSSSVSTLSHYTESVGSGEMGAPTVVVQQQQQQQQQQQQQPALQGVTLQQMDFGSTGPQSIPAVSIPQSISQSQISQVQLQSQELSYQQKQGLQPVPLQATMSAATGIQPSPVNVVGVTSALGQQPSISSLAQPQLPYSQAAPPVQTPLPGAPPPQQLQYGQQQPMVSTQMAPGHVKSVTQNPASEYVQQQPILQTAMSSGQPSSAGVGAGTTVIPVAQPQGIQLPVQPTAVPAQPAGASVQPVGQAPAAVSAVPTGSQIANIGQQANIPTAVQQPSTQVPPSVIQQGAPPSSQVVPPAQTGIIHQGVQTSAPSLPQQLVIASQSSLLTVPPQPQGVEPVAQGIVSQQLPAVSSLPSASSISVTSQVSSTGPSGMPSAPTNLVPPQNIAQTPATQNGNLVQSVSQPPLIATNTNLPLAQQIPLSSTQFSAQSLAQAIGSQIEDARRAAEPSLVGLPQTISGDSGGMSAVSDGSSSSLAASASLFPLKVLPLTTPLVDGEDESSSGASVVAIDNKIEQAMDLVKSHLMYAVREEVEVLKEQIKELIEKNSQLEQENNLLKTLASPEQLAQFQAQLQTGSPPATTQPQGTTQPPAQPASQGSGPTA
UniProt O15164: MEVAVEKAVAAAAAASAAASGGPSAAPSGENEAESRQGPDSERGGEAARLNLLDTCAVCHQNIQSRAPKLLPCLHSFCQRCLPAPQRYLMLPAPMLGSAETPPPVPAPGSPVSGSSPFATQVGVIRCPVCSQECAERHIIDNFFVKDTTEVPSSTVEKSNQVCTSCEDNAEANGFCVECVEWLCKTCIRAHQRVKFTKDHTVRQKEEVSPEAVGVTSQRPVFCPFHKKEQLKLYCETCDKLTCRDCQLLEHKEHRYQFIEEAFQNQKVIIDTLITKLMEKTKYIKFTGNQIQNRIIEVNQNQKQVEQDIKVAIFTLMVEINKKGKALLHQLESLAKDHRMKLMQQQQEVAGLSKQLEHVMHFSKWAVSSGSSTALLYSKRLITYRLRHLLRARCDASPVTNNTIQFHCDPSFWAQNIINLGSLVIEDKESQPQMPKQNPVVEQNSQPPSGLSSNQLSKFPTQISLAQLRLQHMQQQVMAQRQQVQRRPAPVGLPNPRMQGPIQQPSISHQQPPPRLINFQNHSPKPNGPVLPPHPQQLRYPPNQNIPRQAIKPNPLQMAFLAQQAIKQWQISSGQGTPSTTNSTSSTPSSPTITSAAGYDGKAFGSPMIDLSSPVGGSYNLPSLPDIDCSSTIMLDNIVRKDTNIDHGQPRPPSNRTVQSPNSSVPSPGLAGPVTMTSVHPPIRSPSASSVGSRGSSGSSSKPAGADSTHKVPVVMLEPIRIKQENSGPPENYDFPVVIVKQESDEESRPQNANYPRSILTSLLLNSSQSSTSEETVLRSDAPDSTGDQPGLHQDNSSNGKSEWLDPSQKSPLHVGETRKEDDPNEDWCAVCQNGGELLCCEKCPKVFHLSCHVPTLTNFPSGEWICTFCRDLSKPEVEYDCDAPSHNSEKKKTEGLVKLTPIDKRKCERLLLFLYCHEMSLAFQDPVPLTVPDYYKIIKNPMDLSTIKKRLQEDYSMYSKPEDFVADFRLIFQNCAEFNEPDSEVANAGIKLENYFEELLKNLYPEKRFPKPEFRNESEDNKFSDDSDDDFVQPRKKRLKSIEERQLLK
UniProt Q9NXH9: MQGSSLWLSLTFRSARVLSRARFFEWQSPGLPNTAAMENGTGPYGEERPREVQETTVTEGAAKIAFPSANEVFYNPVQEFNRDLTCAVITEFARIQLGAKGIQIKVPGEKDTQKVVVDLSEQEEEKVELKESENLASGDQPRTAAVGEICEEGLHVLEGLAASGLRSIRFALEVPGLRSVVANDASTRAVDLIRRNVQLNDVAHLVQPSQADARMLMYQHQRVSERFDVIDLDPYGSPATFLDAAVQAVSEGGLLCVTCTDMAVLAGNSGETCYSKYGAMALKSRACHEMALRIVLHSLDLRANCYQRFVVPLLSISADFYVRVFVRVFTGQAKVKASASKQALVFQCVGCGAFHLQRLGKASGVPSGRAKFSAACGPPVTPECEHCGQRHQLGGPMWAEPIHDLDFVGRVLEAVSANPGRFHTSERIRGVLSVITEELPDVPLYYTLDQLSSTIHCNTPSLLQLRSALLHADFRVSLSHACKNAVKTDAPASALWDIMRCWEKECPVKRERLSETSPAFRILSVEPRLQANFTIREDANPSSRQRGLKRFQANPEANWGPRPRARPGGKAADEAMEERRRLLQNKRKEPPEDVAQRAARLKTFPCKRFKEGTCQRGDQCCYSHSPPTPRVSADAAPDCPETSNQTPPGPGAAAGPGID
UniProt Q96DX7: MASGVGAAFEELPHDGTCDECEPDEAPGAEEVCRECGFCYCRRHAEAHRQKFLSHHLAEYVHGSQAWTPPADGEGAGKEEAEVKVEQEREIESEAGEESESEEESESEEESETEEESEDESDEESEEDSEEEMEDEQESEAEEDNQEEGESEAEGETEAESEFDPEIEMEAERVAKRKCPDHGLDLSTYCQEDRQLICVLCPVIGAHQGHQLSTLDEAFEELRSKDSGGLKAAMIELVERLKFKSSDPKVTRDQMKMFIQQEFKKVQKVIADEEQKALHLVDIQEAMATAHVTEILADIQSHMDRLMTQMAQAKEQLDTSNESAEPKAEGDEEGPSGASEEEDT
UniProt O75865, whole entry, looked up: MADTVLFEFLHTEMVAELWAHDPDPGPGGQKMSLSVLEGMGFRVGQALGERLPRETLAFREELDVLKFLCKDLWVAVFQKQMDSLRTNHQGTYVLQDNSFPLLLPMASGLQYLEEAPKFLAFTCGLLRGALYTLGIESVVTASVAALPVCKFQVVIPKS
UniProt Q13630: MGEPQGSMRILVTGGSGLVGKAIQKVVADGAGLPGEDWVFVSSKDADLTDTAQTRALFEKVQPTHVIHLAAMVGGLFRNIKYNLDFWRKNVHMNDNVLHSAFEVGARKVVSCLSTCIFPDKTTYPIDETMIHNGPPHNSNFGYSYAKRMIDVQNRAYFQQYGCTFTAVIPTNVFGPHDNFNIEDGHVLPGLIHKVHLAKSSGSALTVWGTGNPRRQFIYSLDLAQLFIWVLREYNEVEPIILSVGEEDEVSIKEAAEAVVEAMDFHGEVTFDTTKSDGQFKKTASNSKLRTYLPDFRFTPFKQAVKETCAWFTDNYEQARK
UniProt Q15654: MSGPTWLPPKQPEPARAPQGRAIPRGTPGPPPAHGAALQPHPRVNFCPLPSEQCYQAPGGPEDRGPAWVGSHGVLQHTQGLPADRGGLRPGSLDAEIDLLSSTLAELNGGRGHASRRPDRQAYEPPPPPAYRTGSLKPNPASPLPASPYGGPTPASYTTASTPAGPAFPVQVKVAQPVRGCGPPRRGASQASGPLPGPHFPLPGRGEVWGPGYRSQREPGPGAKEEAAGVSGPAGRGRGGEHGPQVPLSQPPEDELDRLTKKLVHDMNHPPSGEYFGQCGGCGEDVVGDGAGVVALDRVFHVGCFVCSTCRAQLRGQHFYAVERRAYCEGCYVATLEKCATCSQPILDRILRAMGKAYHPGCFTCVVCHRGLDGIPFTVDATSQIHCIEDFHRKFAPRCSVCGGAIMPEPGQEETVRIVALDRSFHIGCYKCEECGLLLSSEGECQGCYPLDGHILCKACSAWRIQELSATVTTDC
UniProt Q9BUZ4: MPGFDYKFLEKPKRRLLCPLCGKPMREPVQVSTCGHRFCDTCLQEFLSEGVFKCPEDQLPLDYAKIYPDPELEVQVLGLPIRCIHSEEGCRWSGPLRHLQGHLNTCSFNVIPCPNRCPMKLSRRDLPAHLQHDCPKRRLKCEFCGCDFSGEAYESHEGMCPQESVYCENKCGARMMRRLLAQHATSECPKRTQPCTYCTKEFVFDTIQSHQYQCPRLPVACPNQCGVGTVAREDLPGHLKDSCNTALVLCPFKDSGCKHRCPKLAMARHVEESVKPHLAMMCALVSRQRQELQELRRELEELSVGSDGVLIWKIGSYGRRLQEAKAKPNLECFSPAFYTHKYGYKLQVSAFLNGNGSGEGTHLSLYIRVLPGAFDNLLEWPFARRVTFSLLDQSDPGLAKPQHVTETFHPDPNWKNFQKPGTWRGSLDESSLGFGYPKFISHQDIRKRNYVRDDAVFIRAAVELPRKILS
UniProt Q9BSV6: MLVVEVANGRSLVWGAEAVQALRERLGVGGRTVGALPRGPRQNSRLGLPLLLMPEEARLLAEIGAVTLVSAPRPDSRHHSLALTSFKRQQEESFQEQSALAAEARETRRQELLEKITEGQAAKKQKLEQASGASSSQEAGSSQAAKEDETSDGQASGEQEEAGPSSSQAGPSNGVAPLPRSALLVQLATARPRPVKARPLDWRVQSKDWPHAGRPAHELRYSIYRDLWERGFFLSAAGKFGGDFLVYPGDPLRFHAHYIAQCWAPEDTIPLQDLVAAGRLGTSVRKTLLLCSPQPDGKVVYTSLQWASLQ
UniProt O43617, whole entry, looked up: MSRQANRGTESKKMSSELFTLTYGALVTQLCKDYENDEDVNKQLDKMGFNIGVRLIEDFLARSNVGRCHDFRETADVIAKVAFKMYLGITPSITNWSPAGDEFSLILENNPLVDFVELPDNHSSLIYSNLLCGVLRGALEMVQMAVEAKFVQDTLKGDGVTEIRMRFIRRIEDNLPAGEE
UniProt O14545: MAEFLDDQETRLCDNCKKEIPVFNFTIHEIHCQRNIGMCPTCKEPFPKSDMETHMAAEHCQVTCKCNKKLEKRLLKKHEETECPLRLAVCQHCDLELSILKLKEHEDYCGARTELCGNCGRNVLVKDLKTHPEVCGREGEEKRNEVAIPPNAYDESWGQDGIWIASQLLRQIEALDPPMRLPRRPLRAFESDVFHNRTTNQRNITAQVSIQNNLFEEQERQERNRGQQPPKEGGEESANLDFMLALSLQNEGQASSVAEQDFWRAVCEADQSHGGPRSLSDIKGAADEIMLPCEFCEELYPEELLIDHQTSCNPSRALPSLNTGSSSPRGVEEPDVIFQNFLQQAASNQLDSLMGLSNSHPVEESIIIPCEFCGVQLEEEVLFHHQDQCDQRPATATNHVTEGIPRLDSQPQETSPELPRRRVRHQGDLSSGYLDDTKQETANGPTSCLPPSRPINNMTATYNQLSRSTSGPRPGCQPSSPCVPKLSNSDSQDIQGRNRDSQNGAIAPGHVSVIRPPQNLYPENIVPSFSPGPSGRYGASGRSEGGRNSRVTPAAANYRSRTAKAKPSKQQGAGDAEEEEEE

Compound: C1CCN(C1)C(=O)NC2=CC=CC(=C2)NC3=NC=C(C(=N3)NCCC4=CN=CN4)Br
Experiment: log2 fold change, soluble protein after heating vs DMSO (PISA); higher = thermal stabilisation; K562 lysate, 10 uM; active = over 0.2 and 3.5 SD of the protein, either way, in both replicates (recomputed)
In short: (§1)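 Dounce homogenisation of K562 pellets in PBS pH 7.4 with 1 mM MgCl2 produced a crude extract, used at 1 mg/mL protein. Exposure to 10 μM compound lasted 30 min, and aliquots were then heated for 3 min across 48°C-58°C, pooled and brought to 0.5% NP-40 at 4°C. The supernatant after 21,000xg for 90 min was quantified by TMTpro 16plex LC-MS/MS with channel sums equalised. Duplicate values are given as log-two fold change in thermal stability relative to solvent controls.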

log2 fold change, inactive:
TRAP1 (UniProt Q12931) 0.009
TTI1 (UniProt O43156) -0.032
TRNT1 (UniProt Q96Q11) 0.008
TSEN54 (UniProt Q7Z6J9) -0.033
TSN (UniProt Q15631) 0.022
TRMT2A (UniProt Q8IZ69) -0.005
TTC33 (UniProt Q6PID6) -0.003
TRMU (UniProt O75648) 0.017
TSC22D1 (UniProt Q15714) -0.008
TTC19 (UniProt Q6DKK2) -0.006
TRIM11 (UniProt Q96F44) -0.046
TRIP10 (UniProt Q15642) 0.044
TRIM24 (UniProt O15164) -0.014
TRIM28 (UniProt Q13263) 0.006
TRMT1 (UniProt Q9NXH9) -0.023
TRIM44 (UniProt Q96DX7) 0.053
TRAPPC6A isoform 2 (UniProt O75865) 0.154
TRIP10 isoform 2 (UniProt Q15642) 0.011
TRIM32 (UniProt Q13049) 0.047
TSG101 (UniProt Q99816) 0
TSTA3 (UniProt Q13630) -0.033
TRIP6 (UniProt Q15654) -0.027
TTLL12 (UniProt Q14166) 0
TRAPPC8 (UniProt Q9Y2L5) -0.005
TRAF4 (UniProt Q9BUZ4) 0.196
TSEN34 (UniProt Q9BSV6) -0.039
TRAPPC3 (UniProt O43617) 0.009
TRIM23 (UniProt P36406) -0.017
TRAPPC9 isoform 2 (UniProt Q96Q05) 0.027
TRUB1 (UniProt Q8WWH5) -0.017
TRIP4 (UniProt Q15650) -0.008
TRAFD1 (UniProt O14545) -0.018
TRAPPC6B (UniProt Q86SZ2) -0.01

Compound: C1CN(CCC1(CC2=CC=C(C=C2)Cl)N)C3=NC=NC4=C3C=CN4
Experiment: as above
In short: as §1

log2 fold change, inactive:
TRAP1 (UniProt Q12931) -0.008
TTI1 (UniProt O43156) -0.037
TRNT1 (UniProt Q96Q11) 0.012
TSEN54 (UniProt Q7Z6J9) 0.045
TSN (UniProt Q15631) 0.023
TRMT2A (UniProt Q8IZ69) 0.002
TTC33 (UniProt Q6PID6) 0.017
TRMU (UniProt O75648) -0.057
TSC22D1 (UniProt Q15714) 0.044
TTC19 (UniProt Q6DKK2) 0.018
TRIM11 (UniProt Q96F44) 0.002
TRIP10 (UniProt Q15642) -0.028
TRIM24 (UniProt O15164) -0.024
TRIM28 (UniProt Q13263) 0.002
TRMT1 (UniProt Q9NXH9) -0.009
TRIM44 (UniProt Q96DX7) 0.072
TRAPPC6A isoform 2 (UniProt O75865) 0.095
TRIP10 isoform 2 (UniProt Q15642) -0.079
TRIM32 (UniProt Q13049) 0.082
TSG101 (UniProt Q99816) 0.039
TSTA3 (UniProt Q13630) 0.013
TRIP6 (UniProt Q15654) 0.012
TTLL12 (UniProt Q14166) 0.021
TRAPPC8 (UniProt Q9Y2L5) 0.007
TRAF4 (UniProt Q9BUZ4) -0.245
TSEN34 (UniProt Q9BSV6) -0.01
TRAPPC3 (UniProt O43617) -0.014
TRIM23 (UniProt P36406) 0.105
TRAPPC9 isoform 2 (UniProt Q96Q05) 0.034
TRUB1 (UniProt Q8WWH5) 0.031
TRIP4 (UniProt Q15650) -0.005
TRAFD1 (UniProt O14545) -0.012
TRAPPC6B (UniProt Q86SZ2) 0.019

Compound: C1COCCN1CCN2C3=CC=CC=C3N=C2NC(=O)C4=CC(=CC=C4)[N+](=O)[O-] [IRAK-1-4 Inhibitor I]
Experiment: as above
In short: as §1

log2 fold change, inactive:
TRAP1 (UniProt Q12931) -0.021
TTI1 (UniProt O43156) 0.015
TRNT1 (UniProt Q96Q11) -0.015
TSEN54 (UniProt Q7Z6J9) -0.025
TSN (UniProt Q15631) 0.014
TRMT2A (UniProt Q8IZ69) -0.007
TTC33 (UniProt Q6PID6) -0.032
TRMU (UniProt O75648) -0.039
TSC22D1 (UniProt Q15714) -0.018
TTC19 (UniProt Q6DKK2) -0.012
TRIM11 (UniProt Q96F44) 0.043
TRIP10 (UniProt Q15642) -0.04
TRIM24 (UniProt O15164) 0.025
TRIM28 (UniProt Q13263) -0.003
TRMT1 (UniProt Q9NXH9) 0.003
TRIM44 (UniProt Q96DX7) 0.043
TRAPPC6A isoform 2 (UniProt O75865) 0.047
TRIP10 isoform 2 (UniProt Q15642) -0.078
TRIM32 (UniProt Q13049) -0.041
TSG101 (UniProt Q99816) -0.01
TSTA3 (UniProt Q13630) -0.012
TRIP6 (UniProt Q15654) 0.023
TTLL12 (UniProt Q14166) -0.016
TRAPPC8 (UniProt Q9Y2L5) 0.004
TRAF4 (UniProt Q9BUZ4) -0.029
TSEN34 (UniProt Q9BSV6) 0.008
TRAPPC3 (UniProt O43617) -0.032
TRIM23 (UniProt P36406) 0.183
TRAPPC9 isoform 2 (UniProt Q96Q05) 0.027
TRUB1 (UniProt Q8WWH5) 0.004
TRIP4 (UniProt Q15650) -0.002
TRAFD1 (UniProt O14545) 0
TRAPPC6B (UniProt Q86SZ2) -0.026
